Experimental data: article PMC3425544, “The S100A10 Subunit of the Annexin A2 Heterotetramer Facilitates L2-Mediated Human Papillomavirus Infection” (PLoS ONE, 2012)
Results are given in words; binding and its absence hold for the method and conditions named. For some assays here: Binding seen in cells or lysates may run through a third protein. Some entries that bind do so weakly or less than the wild type.

The chains behind the UniProt entries cited, without tags or fusion partners. Residues count along the entry.
UniProt P03101: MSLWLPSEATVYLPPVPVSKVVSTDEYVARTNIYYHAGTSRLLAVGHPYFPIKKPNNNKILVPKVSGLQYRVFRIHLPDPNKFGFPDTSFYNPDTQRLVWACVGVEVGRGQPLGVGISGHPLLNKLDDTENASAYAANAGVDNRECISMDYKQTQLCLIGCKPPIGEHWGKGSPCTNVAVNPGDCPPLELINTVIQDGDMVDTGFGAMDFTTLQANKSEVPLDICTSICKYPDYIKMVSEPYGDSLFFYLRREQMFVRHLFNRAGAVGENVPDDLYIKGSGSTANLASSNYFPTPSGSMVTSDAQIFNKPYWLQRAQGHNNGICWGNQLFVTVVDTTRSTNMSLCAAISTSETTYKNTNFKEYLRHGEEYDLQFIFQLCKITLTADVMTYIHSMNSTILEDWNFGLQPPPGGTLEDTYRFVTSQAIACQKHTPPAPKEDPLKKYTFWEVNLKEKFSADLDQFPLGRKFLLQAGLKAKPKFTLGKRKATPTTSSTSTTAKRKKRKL
UniProt P07355: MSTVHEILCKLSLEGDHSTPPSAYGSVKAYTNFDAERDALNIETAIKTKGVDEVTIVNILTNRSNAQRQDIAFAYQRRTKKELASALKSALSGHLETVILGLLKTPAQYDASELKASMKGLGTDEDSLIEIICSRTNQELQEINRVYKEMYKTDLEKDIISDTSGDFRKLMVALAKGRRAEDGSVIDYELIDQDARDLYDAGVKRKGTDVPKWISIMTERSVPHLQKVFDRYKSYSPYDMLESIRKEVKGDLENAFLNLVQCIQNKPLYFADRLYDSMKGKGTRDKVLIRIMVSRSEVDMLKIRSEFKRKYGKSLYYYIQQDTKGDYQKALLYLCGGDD
UniProt P60903: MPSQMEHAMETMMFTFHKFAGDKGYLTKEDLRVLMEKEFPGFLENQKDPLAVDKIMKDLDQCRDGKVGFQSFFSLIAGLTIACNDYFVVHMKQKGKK
UniProt P03973, residues 26-132: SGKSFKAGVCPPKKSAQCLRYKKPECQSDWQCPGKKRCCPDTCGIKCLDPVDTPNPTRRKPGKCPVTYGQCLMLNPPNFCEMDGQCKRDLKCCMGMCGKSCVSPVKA

How the values were obtained:
[1] = biological target: HPV16 L1 virus-like particles (human papillomavirus type 16) (UniProt P03101); test: co-IP; HeLa cells incubated with 125 µg particles for 1 hour at 37°C, surface proteins cross-linked with 1.5 mM DTSSP, lysed (1% NP-40); particles precipitated with anti-L1 H16.V5 on Protein-G Dynabeads; Western blot for annexin A2 and S100A10; only the target purified
[2] = biological target: wildtype HPV16 pseudovirions (L1 and L2 capsid with a GFP reporter plasmid) (human papillomavirus type 16) (UniProt P03101); test: as above
[3] = biological target: HPV16 L1L2 virus-like particles (human papillomavirus type 16) (UniProt P03101); test: as above
[4] = biological target: annexin A2 heterotetramer (A2t), purified human recombinant (human) (UniProt P07355); test: ELISA; both purified
[5] = biological target: annexin A2 heterotetramer (A2t), purified human recombinant (human) (UniProt P07355); test: ELISA; 500 ng purified A2t coated overnight at 4°C, blocked with 10% casein; 400 ng PsV or rhu SLPI added; PsV detected with anti-L1 H16.V5, SLPI with goat anti-SLPI; absorbance at 490 nm; both purified

Substance | binding [1] | binding [2] | binding [3] | binding [4] | binding [5]
S100A10 on the surface of HeLa cells (from UniProt P60903 1-97) | no binding | binds | binds |  | 
annexin A2 on the surface of HeLa cells (from UniProt P07355 1-339) | no binding | binds | binds |  | 
recombinant human secretory leukocyte protease inhibitor (from UniProt P03973 26-132) |  |  |  | binds | 
wildtype HPV16 pseudovirions (L1 and L2 capsid with a GFP reporter plasmid) (from UniProt P03101 1-505; P03107 1-473) (complex) |  |  |  |  | binds
